Experimental data from publication PMC4335217.
These are yes or no findings as the source states them, for the method shown. Binding seen in cells or lysates may run through a third protein. Some entries that bind do so weakly or less than the wild type.

Sequences of proteins named here, by UniProt entry; tags and fusion partners are left off.
UniProt Q4JK59: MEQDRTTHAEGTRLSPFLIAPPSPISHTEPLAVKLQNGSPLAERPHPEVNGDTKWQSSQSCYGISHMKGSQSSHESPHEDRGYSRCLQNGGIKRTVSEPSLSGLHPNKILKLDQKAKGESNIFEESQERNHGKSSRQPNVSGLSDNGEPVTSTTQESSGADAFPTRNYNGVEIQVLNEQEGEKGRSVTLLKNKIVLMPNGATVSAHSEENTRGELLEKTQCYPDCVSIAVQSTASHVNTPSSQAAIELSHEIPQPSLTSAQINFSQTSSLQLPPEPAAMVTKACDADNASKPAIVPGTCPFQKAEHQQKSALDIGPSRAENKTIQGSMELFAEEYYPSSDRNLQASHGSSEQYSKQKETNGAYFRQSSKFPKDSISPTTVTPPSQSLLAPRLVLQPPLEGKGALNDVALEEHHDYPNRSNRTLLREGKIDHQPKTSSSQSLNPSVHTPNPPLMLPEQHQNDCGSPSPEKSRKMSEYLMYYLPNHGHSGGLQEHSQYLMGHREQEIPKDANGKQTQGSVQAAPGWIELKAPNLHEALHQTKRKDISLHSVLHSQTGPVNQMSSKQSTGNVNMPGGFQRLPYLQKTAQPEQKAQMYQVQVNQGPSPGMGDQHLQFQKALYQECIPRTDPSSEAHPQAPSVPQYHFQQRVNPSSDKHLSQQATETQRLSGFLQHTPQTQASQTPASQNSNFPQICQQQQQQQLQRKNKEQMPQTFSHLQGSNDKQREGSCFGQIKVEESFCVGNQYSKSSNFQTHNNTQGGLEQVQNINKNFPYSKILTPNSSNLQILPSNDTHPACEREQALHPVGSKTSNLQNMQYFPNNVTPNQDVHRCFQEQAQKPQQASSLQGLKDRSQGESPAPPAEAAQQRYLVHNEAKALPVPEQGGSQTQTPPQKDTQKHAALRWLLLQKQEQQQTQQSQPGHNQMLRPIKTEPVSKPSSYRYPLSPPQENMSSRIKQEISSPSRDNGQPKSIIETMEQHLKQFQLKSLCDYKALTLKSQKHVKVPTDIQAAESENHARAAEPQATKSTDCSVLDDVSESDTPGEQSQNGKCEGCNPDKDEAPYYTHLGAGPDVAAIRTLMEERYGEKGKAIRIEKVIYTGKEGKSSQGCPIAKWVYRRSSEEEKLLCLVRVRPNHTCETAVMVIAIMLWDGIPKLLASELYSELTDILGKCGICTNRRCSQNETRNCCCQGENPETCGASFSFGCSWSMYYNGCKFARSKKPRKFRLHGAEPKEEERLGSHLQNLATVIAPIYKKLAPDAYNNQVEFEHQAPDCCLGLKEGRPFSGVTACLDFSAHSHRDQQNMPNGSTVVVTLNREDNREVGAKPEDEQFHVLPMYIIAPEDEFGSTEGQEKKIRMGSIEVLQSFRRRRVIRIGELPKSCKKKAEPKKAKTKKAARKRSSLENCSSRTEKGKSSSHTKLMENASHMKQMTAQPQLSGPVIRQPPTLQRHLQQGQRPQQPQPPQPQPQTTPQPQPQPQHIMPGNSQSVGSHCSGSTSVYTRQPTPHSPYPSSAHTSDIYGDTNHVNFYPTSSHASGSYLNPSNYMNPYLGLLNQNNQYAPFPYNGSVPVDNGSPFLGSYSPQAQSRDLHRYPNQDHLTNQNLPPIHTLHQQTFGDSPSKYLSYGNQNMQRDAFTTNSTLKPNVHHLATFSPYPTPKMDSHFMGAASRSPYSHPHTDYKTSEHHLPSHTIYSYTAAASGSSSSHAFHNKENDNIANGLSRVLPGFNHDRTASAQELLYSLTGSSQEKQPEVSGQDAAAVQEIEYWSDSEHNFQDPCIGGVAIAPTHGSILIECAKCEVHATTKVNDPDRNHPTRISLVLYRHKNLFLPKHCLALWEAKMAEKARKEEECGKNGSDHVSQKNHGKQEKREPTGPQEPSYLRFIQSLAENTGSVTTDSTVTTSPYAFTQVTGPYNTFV

B1: Cherry-OGT(H508A) (enzyme, UniProt Q8CGY8 1-1046)
chain: MASSVGNVADSTEPTKRMLSFQGLAELAHREYQAGDFEAAERHCMQLWRQEPDNTGVLLLLSSIHFQCRRLDRSAHFSTLAIKQNPLLAEAYSNLGNVYKERGQLQEAIEHYRHALRLKPDFIDGYINLAAALVAAGDMEGAVQAYVSALQYNPDLYCVRSDLGNLLKALGRLEEAKACYLKAIETQPNFAVAWSNLGCVFNAQGEIWLAIHHFEKAVTLDPNFLDAYINLGNVLKEARIFDRAVAAYLRALSLSPNHAVVHGNLACVYYEQGLIDLAIDTYRRAIELQPHFPDAYCNLANALKEKGSVAEAEDCYNTALRLCPTHADSLNNLANIKREQGNIEEAVRLYRKALEVFPEFAAAHSNLASVLQQQGKLQEALMHYKEAIRISPTFADAYSNMGNTLKEMQDVQGALQCYTRAIQINPAFADAHSNLASIHKDSGNIPEAIASYRTALKLKPDFPDAYCNLAHCLQIVCDWTDYDERMKKLVSIVAEQLEKNRLPSVHPAHSMLYPLSHGFRKAIAERHGNLCLDKINVLHKPPYEHPKDLKLSDGRLRVGYVSSDFGNHPTSHLMQSIPGMHNPDKFEVFCYALSPDDGTNFRVKVMAEANHFIDLSQIPCNGKAADRIHQDGIHILVNMNGYTKGARNELFALRPAPIQAMWLGYPGTSGALFMDYIITDQETSPAEVAEQYSEKLAYMPHTFFIGDHANMFPHLKKKAVIDFKSNGHIYDNRIVLNGIDLKAFLDSLPDVKIVKMKCPDGGDNPDSSNTALNMPVIPMNTIAEAVIEMINRGQIQITINGFSISNGLATTQINNKAATGEEVPRTIIVTTRSQYGLPEDAIVYCNFNQLYKIDPSTLQMWANILKRVPNSVLWLLRFPAVGEPNIQQYAQNMGLPQNRIIFSPVAPKEEHVRRGQLADVCLDTPLCNGHTTGMDVLWAGTPMVTMPGETLASRVAASQLTCLGCLELIAKSRQEYEDIAVKLGTDLEYLKKIRGKVWKQRISSPLFNTKQYTMELERLYLQMWEHYAAGNKPDHMIKPVEVTESA
B2: Cherry-OGT (enzyme, UniProt Q8CGY8 1-1046)
chain: MASSVGNVADSTEPTKRMLSFQGLAELAHREYQAGDFEAAERHCMQLWRQEPDNTGVLLLLSSIHFQCRRLDRSAHFSTLAIKQNPLLAEAYSNLGNVYKERGQLQEAIEHYRHALRLKPDFIDGYINLAAALVAAGDMEGAVQAYVSALQYNPDLYCVRSDLGNLLKALGRLEEAKACYLKAIETQPNFAVAWSNLGCVFNAQGEIWLAIHHFEKAVTLDPNFLDAYINLGNVLKEARIFDRAVAAYLRALSLSPNHAVVHGNLACVYYEQGLIDLAIDTYRRAIELQPHFPDAYCNLANALKEKGSVAEAEDCYNTALRLCPTHADSLNNLANIKREQGNIEEAVRLYRKALEVFPEFAAAHSNLASVLQQQGKLQEALMHYKEAIRISPTFADAYSNMGNTLKEMQDVQGALQCYTRAIQINPAFADAHSNLASIHKDSGNIPEAIASYRTALKLKPDFPDAYCNLAHCLQIVCDWTDYDERMKKLVSIVAEQLEKNRLPSVHPHHSMLYPLSHGFRKAIAERHGNLCLDKINVLHKPPYEHPKDLKLSDGRLRVGYVSSDFGNHPTSHLMQSIPGMHNPDKFEVFCYALSPDDGTNFRVKVMAEANHFIDLSQIPCNGKAADRIHQDGIHILVNMNGYTKGARNELFALRPAPIQAMWLGYPGTSGALFMDYIITDQETSPAEVAEQYSEKLAYMPHTFFIGDHANMFPHLKKKAVIDFKSNGHIYDNRIVLNGIDLKAFLDSLPDVKIVKMKCPDGGDNPDSSNTALNMPVIPMNTIAEAVIEMINRGQIQITINGFSISNGLATTQINNKAATGEEVPRTIIVTTRSQYGLPEDAIVYCNFNQLYKIDPSTLQMWANILKRVPNSVLWLLRFPAVGEPNIQQYAQNMGLPQNRIIFSPVAPKEEHVRRGQLADVCLDTPLCNGHTTGMDVLWAGTPMVTMPGETLASRVAASQLTCLGCLELIAKSRQEYEDIAVKLGTDLEYLKKIRGKVWKQRISSPLFNTKQYTMELERLYLQMWEHYAAGNKPDHMIKPVEVTESA

Target: GFP-TET2 (murine) (UniProt Q4JK59)
Test: co-IP; GFP-tagged TET proteins coexpressed with Cherry-OGT or Cherry-OGT^mut in HEK293T cells; enriched with GFP-Trap; Western blot, Cherry-tagged OGT detected with anti-RED antibody

Binder | binding
B1 | binds
B2 | binds
